PubChem BioAssay AID1159579 | Peter MacCallum Cancer Centre | 2015
Shown is an unselected part of about 2,000 deposited reagents. In the full data, 549 (27%) got an active call. 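Some migration ratios are negative; siRNAs with too few cells are inactive whatever their migration ratio.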 The numbers tell different reagents against one gene apart. Not all columns of the deposit are shown. The record does not give: the time to read-out.

Aim: 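Retest candidate lymphatic endothelial migration regulators using several independent siRNAs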 (follow-up of hits)
Cell system: human dermal lymphatic endothelial cells
Knock-down reagent: single siRNA against human genes, 25 nM
Measured: 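Scratch wound imaging measuring area filled by moving cells plus nuclei number, averaged over two wells and scaled to mock-transfected controls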
Reading the numbers: migration relative to mock: higher = more migration into the scratch; mean nuclei count: higher = more cells remaining
Rule for the call: 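Called active when the migration ratio is 0.6 or lower (impaired) or 1.3 or higher (accelerated), but inactive whenever the mean nuclei count falls under 3300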
Meaning of the calls: active = migration changed (impaired or accelerated); inactive = no migration change, or too few cells

CDK7 (cyclin dependent kinase 7) #1 | migration relative to mock = 0.62; mean nuclei count = 5756; call = inactive
CDK7 (cyclin dependent kinase 7) #2 | migration relative to mock = 0.78; mean nuclei count = 5175; call = inactive
CDK7 (cyclin dependent kinase 7) #3 | migration relative to mock = 0.8; mean nuclei count = 6029; call = inactive
CDK7 (cyclin dependent kinase 7) #4 | migration relative to mock = 0.8; mean nuclei count = 5498; call = inactive
RAB36 (RAB36, member RAS oncogene family) #1 | migration relative to mock = 0.05; mean nuclei count = 4267; call = active
RAB36 (RAB36, member RAS oncogene family) #2 | migration relative to mock = 0.9; mean nuclei count = 6340; call = inactive
RAB36 (RAB36, member RAS oncogene family) #3 | migration relative to mock = 0.69; mean nuclei count = 6186; call = inactive
RAB36 (RAB36, member RAS oncogene family) #4 | migration relative to mock = 0.91; mean nuclei count = 5758; call = inactive

2 of these entries, set out differently.
gene knocked down | reagent no. | migration relative to mock | mean nuclei count | call
RAB36 (RAB36, member RAS oncogene family) | 1 | 0.05 | 4267 | active
RAB36 (RAB36, member RAS oncogene family) | 2 | 0.9 | 6340 | inactive

The list goes on:
PLPP1 (phospholipid phosphatase 1) #1 | migration relative to mock = 0.4; mean nuclei count = 5822; call = active
PLPP1 (phospholipid phosphatase 1) #2 | migration relative to mock = 0.99; mean nuclei count = 6564; call = inactive
PLPP1 (phospholipid phosphatase 1) #3 | migration relative to mock = 0.58; mean nuclei count = 8020; call = active
PLPP1 (phospholipid phosphatase 1) #4 | migration relative to mock = 0.98; mean nuclei count = 7704; call = inactive
PHKG2 (phosphorylase kinase catalytic subunit gamma 2) #1 | migration relative to mock = 0.84; mean nuclei count = 6486; call = inactive
PHKG2 (phosphorylase kinase catalytic subunit gamma 2) #2 | migration relative to mock = 0.7; mean nuclei count = 6239; call = inactive
PHKG2 (phosphorylase kinase catalytic subunit gamma 2) #3 | migration relative to mock = 0.94; mean nuclei count = 6010; call = inactive
PHKG2 (phosphorylase kinase catalytic subunit gamma 2) #4 | migration relative to mock = 0.92; mean nuclei count = 6080; call = inactive
